From PubChem BioAssay AID2685 (National Center for Advancing Translational Sciences (NCATS), 2010)
The campaign covered roughly 320,000 compounds. About 2,100 (0.66%) were called active. The call rests on the fitted dose curve; in most records, active means well fitted inhibition curve with a large enough effect in the signal ratio, with a control signal flat (not every such curve was filed as active); inconclusive means small, poorly fitted or top-dose-only effect, or effect the other way, or a change in a side signal; inactive means flat fitted curve, though single readings scatter; the % refers to the signal ratio. Inconclusive results, whose numbers are uncertain, are shown. Potencies beside an inconclusive call are fits to weak or partial responses and may not hold up.

Assay: qHTS Assay for Lipid Storage Modulators in Drosophila S3 Cells
Settings: BODIPY lipid droplet fluorescence, 18-24 h, cells fed with added oleic acid; lipid storage change, negative = inhibition: at 46.1 µM (top of the series) unless noted
Method in brief: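 Drosophila S3 cells got compounds at several concentrations plus oleic acid (400 uM solution). Laser-scanning cytometry with 488 nm excitation read lipid droplets at 500-530 nm and cells at 575-640 nm. Percent activity was relative to 20 uM Triacsin C.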
On the % scale 0 is the no-effect control and ±100 the full control effect; potency means the concentration at half of the fitted maximal effect.

Lipid storage change, negative = inhibition, inconclusive:
CCc1ccc(C(O)(CC)C(CN2CCOCC2)c2ccccc2)cc1 (stereo not drawn) -29.5%, O=C(O)c1ccccc1OCc1ccccc1Br -28%, CCOC(=O)[C@@H]1[C@H]2COc3cc(OC)ccc3[C@H]2N2C(=O)N(c3cccc(Cl)c3)C(=O)[C@@]12C 13.7%, Cc1ccc(/C=N/N2CCN(c3ccccn3)CC2)o1 9.45%, CCc1ccc(-n2c(=O)c3c(C)c(C(=O)N(C)C)sc3n(CC(=O)NCc3ccco3)c2=O)cc1 -15.9%, CC(=O)O[C@]1(C(C)=O)CC[C@H]2[C@@H]3C=C(C)C4=CC(=O)CC[C@@H]4[C@H]3CC[C@@]21C 25.2%, O=C(CCc1ccccc1)NNC(=O)COc1ccc([N+](=O)[O-])cc1 37.1%, COc1ccc(CNC(=O)COC(=O)C2=COCCO2)cc1 -36.7%, O=c1[nH]c2ccc(NC(=S)NC3CCCCC3)cc2[nH]1 -9.77%, CCOc1ccccc1/C=N/Nc1cc(C)nc2ccc(C)cc12 29.3%, Cc1ccnc(NC(=O)c2cc3ccccc3o2)c1 12.5%, CCCOC(=O)C1[C@H]2C(=O)N(CCCOC)C[C@]23C=C[C@H]1O3 (stereo partly drawn) -0.428%, Cn1c(N)c(C(=O)CSc2nnc(Cc3cccs3)n2C2CC2)c(=O)n(C)c1=O 12.7%, COc1ccc(NC(=O)CCCC(=O)O)cc1Cl 95%, COc1ccc(C2CC(c3cccs3)=NN2C(=O)COC(=O)c2cc3ccccc3cc2O)cc1OC (stereo not drawn) 11.7%, CCCn1c(N)c(N(CCOC)C(=O)C(C)Oc2ccc(F)cc2)c(=O)[nH]c1=O (stereo not drawn), CCSc1nnc(NC(=O)c2cc(-c3ccccc3O)n[nH]2)s1 6.88%, Cc1nn(-c2ccccc2)c(C)c1NC(=O)COc1ccc2ccccc2c1 -56.2%, CCC1(C)SC(N)=NN1C(C)=O (stereo not drawn) -13.2%, O=C(NC1C/C(=N/O)c2cc3c(cc21)OCO3)C(F)(F)F (stereo not drawn) 14.5%, Cc1ccc(N2CC(C(=O)NCc3n[nH]c(=O)c4ccccc34)CC2=O)cc1 (stereo not drawn) 31%

Potency, inconclusive:
CCCN(CC(=O)Nc1ccccc1OC)C(=O)Cc1ccc2c(c1)CCC2 0.184 µM [falling, full curve, poor fit], O=C(O)c1ccc(CNC(=O)c2ccc(C(F)(F)F)cc2)cc1 29.1 µM [falling, single point]
